In paper PMC12174314:
Results are given in words; binding and its absence hold for the method and conditions named. In cells and extracts the contact can be indirect. Some results given as binding are weak or reduced against the parent protein; the word gives no strength.

The chains behind the UniProt entries cited, without tags or fusion partners. Residues count along the entry.
UniProt Q07954, residues 20-4544: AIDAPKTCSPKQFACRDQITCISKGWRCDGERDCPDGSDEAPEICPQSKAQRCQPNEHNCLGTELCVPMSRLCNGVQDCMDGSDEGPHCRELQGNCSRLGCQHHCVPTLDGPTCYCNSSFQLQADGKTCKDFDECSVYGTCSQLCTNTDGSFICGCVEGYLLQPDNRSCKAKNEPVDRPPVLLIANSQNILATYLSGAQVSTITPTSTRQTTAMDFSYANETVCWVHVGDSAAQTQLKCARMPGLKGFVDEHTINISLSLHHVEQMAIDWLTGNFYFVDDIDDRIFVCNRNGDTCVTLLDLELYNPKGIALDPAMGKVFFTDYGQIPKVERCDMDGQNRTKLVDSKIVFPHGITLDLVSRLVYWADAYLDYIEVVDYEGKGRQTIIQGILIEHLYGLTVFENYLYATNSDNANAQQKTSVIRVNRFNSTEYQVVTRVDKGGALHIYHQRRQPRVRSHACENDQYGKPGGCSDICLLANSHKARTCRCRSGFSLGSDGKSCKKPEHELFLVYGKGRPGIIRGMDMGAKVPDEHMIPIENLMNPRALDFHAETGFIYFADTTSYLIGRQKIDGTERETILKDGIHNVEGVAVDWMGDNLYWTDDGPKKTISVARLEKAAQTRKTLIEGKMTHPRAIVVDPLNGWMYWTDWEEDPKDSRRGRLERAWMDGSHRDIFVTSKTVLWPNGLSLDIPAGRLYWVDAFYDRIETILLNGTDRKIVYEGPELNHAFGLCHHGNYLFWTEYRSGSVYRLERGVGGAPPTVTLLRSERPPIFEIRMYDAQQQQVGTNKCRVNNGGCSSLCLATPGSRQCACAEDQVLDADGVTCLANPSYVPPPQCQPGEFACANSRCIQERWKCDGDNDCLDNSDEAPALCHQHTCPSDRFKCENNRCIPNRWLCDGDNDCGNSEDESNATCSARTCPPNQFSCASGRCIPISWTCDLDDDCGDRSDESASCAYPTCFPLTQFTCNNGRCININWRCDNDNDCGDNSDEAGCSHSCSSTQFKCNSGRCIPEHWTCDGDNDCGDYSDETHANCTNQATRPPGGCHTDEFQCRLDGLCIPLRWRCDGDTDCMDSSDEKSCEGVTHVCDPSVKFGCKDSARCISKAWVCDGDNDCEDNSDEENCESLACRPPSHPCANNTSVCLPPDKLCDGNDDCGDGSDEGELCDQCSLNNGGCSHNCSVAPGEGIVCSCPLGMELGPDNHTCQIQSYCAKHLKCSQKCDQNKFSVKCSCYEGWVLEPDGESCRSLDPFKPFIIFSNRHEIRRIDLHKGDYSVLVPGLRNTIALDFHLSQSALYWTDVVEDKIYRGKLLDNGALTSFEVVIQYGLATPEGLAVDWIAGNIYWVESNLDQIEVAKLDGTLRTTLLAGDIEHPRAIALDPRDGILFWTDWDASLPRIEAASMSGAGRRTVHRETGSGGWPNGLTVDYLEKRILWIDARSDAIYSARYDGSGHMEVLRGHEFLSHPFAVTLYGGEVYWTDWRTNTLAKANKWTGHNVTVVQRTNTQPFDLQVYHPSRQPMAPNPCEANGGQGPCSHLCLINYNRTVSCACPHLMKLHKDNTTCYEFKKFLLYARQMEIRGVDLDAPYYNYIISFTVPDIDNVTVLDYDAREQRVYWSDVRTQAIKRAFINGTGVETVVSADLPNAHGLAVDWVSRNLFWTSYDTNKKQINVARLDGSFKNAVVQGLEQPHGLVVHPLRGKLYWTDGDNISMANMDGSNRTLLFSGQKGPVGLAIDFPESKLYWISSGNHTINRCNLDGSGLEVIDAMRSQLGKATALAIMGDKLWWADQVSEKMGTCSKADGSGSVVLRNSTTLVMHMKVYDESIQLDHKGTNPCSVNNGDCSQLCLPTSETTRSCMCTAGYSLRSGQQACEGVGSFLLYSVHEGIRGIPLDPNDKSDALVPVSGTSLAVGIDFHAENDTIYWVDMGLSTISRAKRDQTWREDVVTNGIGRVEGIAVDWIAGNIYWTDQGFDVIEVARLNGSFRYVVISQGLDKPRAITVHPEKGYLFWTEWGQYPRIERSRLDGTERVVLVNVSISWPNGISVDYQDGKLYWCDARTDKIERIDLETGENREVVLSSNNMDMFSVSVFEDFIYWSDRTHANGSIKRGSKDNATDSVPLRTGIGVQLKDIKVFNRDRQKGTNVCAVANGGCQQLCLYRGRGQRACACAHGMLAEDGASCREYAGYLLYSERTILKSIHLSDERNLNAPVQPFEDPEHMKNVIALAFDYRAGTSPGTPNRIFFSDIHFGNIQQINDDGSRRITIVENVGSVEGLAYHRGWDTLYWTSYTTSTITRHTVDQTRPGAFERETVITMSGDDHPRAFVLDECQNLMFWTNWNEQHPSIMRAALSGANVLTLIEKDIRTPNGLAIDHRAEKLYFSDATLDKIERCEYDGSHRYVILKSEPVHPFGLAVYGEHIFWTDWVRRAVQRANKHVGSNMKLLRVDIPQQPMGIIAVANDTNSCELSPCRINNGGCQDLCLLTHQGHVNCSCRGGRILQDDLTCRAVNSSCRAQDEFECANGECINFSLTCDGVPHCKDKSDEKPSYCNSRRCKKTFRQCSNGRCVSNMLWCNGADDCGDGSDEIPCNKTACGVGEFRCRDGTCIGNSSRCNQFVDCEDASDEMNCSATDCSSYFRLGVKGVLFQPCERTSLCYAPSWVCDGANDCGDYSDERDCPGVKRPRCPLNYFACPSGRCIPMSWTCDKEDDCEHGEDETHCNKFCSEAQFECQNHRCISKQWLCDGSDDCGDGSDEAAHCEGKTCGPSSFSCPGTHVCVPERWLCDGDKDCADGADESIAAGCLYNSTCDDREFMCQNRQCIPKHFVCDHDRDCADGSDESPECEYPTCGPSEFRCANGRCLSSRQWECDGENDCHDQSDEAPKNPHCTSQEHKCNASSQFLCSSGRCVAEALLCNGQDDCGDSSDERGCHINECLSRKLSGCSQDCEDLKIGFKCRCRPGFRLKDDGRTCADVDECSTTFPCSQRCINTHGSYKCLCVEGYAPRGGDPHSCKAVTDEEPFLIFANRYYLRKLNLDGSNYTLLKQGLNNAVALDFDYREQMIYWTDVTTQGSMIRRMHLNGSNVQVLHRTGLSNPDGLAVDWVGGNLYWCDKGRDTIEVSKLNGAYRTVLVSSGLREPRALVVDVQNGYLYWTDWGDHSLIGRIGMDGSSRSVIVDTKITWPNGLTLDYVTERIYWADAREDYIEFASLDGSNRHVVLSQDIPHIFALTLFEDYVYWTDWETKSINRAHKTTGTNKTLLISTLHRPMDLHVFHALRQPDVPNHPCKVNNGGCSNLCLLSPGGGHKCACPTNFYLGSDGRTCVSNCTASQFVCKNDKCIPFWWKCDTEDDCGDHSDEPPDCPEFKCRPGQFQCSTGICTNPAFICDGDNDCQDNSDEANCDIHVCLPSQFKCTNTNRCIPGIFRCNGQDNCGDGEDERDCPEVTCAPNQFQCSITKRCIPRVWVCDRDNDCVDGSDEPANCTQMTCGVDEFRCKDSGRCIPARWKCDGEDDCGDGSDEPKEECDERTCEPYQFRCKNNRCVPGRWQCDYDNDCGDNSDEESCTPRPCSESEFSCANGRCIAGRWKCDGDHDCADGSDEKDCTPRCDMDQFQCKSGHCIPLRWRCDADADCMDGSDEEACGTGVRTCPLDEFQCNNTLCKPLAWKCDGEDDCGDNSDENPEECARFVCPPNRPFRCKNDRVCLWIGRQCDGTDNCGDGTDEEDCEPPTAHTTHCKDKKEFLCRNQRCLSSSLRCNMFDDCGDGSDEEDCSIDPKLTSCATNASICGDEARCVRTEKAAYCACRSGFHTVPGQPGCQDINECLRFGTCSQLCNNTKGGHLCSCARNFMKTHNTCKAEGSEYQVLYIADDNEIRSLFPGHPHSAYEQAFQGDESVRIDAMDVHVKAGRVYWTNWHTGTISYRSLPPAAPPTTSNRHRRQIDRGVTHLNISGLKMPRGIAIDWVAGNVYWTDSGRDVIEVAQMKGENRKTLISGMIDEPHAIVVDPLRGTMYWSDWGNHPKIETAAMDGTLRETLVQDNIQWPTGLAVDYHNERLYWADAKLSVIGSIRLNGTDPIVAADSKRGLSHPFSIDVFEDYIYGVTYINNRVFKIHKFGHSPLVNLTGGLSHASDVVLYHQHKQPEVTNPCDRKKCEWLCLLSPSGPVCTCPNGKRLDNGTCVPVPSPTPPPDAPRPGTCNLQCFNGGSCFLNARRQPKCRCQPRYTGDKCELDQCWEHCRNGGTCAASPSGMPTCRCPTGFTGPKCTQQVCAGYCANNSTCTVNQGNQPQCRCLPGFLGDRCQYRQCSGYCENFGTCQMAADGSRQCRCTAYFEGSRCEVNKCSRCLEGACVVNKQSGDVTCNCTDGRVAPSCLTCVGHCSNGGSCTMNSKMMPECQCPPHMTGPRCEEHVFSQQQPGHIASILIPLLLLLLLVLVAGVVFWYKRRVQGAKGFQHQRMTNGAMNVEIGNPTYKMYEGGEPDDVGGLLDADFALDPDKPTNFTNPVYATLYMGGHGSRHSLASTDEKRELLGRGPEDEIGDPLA

Molecular target: low-density lipoprotein receptor-related protein 1 (LRP1), surface receptor on macrophages (human (endogenous in THP-1)) (UniProt Q07954)
Assay: co-IP; cell protein extract of THP-1 cells co-cultured with U87MG, U251MG or T98MG (THP1^U87MG, THP1^U251MG, THP1^T98MG); IP antibody overnight at 4 °C, protein A/G beads, IgG of the same species as negative control, WB detection; which protein was precipitated is not told

binding: binds
B1: midkine (MDK) secreted by GBM cells (ligand, UniProt P21741 21-143)
chain: VAKKKDKVKKGGPGSECAEWAWGPCTPSSKDCGVGFREGTCGAQTQRIRCRVPCNWKKEFGADCKYKFENWGACDGGTGTKVRQGTLKKARYNAQCQETIRVTKPCTPKTKAKAKAKKGKGKD
